The list shows only some results of the screen, not a fair sample: it is rich in T/C values a quarter to a half above the control, in often repeated tests (any T/C) and in doses without a T/C. Further doses and runs are listed elsewhere. T/C is the treated group as % of the vehicle group. Some entries give survivors of the animals treated and no T/C: the source files T/C as zero there, which appears to mark a toxic dose or a test without result, not a measured value. Some doses without a T/C left all or most animals alive at the check, yet need not have been tolerated: the source hardly ever lists a survival T/C far under the control, and the zero likely stands for such cases as well. Survivors were counted at the toxicity check, usually on the fifth day, unless a day is given; later deaths do not show. Schedule codes are those of the source, taken here to give the interval after Q, in days (D) or hours (H), and the number of doses after X. Some entries were tested several times; the results are listed from low to high. For survival time, this PubChem deposit counts one and a half times the control or more as active, and values a quarter to a half above the control carry no call in these data; other NCI protocols may use other cut-offs.
Tested on: L1210 leukemia ip in BDF1 mice, survival T/C
Assay: NCI In Vivo Anticancer Drug Screen. Data for tumor model L1210 Leukemia (intraperitoneal) in B6D2F1 (BDF1) mice
Settings: higher T/C = longer survival
[1] = T/C endpoint: mean survival time, dose: 16.0 mg/kg/injection, schedule: Q04DX003 (ip), vehicle: saline
[2] = T/C endpoint: mean survival time, dose: 24.0 mg/kg/injection, schedule: Q01DX001 (ip), vehicle: saline

## OC(C1CO1)C(O)C1CO1 (stereo not drawn)
T/C endpoint: mean survival time, dose: 16.0 mg/kg/injection, schedule: Q01DX009 (oral), vehicle: saline
  survivor count: 3 of 10
T/C endpoint: mean survival time, dose: 16.0 mg/kg/injection, schedule: Q01DX009 (sc), vehicle: saline
  survivor count: 2 of 10
[1]
  T/C: 144 % of control
  survivor count: 1 of 6, 6 of 10, 8 of 10
T/C endpoint: mean survival time, dose: 16.0 mg/kg/injection, schedule: Q08DX002 (ip), vehicle: saline
  survivor count: 6 of 10 and 4 of 6
T/C endpoint: mean survival time, dose: 16.5 mg/kg/injection, schedule: Q01DX009 (ip), vehicle: saline
  survivor count: 5 of 6
T/C endpoint: mean survival time, dose: 21.0 mg/kg/injection, schedule: Q01DX001 (ip), vehicle: saline
  survivor count: 4 of 6
[2]
  T/C: 136 % of control
  survivor count: 4 of 6
T/C endpoint: mean survival time, dose: 24.0 mg/kg/injection, schedule: Q01DX009 (ip), vehicle: saline
  survivor count: 6 of 6
T/C endpoint: mean survival time, dose: 24.0 mg/kg/injection, schedule: Q04DX003 (ip), vehicle: saline
  survivor count: 0 of 6
T/C endpoint: mean survival time, dose: 24.0 mg/kg/injection, schedule: Q08DX002 (ip), vehicle: saline
  survivor count: 4 of 6
T/C endpoint: mean survival time, dose: 25.0 mg/kg/injection, schedule: Q01DX009 (ip), vehicle: saline
  survivor count: 6 of 6
T/C endpoint: mean survival time, dose: 32.0 mg/kg/injection, schedule: Q01DX001 (ip), vehicle: saline
  survivor count: 1 of 10
T/C endpoint: mean survival time, dose: 32.0 mg/kg/injection, schedule: Q01DX001 (oral), vehicle: saline
  survivor count: 3 of 10
T/C endpoint: mean survival time, dose: 32.0 mg/kg/injection, schedule: Q01DX001 (sc), vehicle: saline
  survivor count: 0 of 10
T/C endpoint: mean survival time, dose: 32.0 mg/kg/injection, schedule: Q01DX009 (oral), vehicle: saline
  survivor count: 5 of 10
T/C endpoint: mean survival time, dose: 32.0 mg/kg/injection, schedule: Q08DX002 (ip), vehicle: saline
  survivor count: 1 of 10
T/C endpoint: mean survival time, dose: 42.0 mg/kg/injection, schedule: Q01DX009 (ip), vehicle: saline
  survivor count: 1 of 6
T/C endpoint: mean survival time, dose: 50.0 mg/kg/injection, schedule: Q01DX009 (ip), vehicle: saline
  survivor count: 6 of 6
T/C endpoint: mean survival time, dose: 63.0 mg/kg/injection, schedule: Q01DX009 (ip), vehicle: saline
  survivor count: 3 of 6
T/C endpoint: mean survival time, dose: 64.0 mg/kg/injection, schedule: Q01DX001 (oral), vehicle: saline
  survivor count: 2 of 10
T/C endpoint: mean survival time, dose: 64.0 mg/kg/injection, schedule: Q01DX001 (sc), vehicle: saline
  survivor count: 0 of 10
T/C endpoint: mean survival time, dose: 64.0 mg/kg/injection, schedule: Q01DX009 (oral), vehicle: saline
  survivor count: 3 of 10
T/C endpoint: mean survival time, dose: 75.0 mg/kg/injection, schedule: Q01DX001 (ip), vehicle: saline
  survivor count: 5 of 6
T/C endpoint: mean survival time, dose: 94.0 mg/kg/injection, schedule: Q01DX009 (ip), vehicle: saline
  survivor count: 4 of 6
T/C endpoint: mean survival time, dose: 100.0 mg/kg/injection, schedule: Q01DX009 (ip), vehicle: water
  survivor count: 9 of 10
T/C endpoint: mean survival time, dose: 100.0 mg/kg/injection, schedule: Q04DX003 (ip), vehicle: saline
  survivor count: 4 of 6
T/C endpoint: mean survival time, dose: 118.0 mg/kg/injection, schedule: Q01DX001 (ip), vehicle: saline
  survivor count: 0 of 6
T/C endpoint: mean survival time, dose: 118.0 mg/kg/injection, schedule: Q04DX003 (ip), vehicle: saline
  survivor count: 3 of 6
T/C endpoint: mean survival time, dose: 128.0 mg/kg/injection, schedule: Q01DX001 (oral), vehicle: saline
  survivor count: 3 of 10
T/C endpoint: mean survival time, dose: 140.0 mg/kg/injection, schedule: Q01DX009 (ip), vehicle: saline
  survivor count: 5 of 6
T/C endpoint: mean survival time, dose: 150.0 mg/kg/injection, schedule: Q01DX001 (ip), vehicle: saline
  survivor count: 5 of 6
T/C endpoint: mean survival time, dose: 177.0 mg/kg/injection, schedule: Q01DX001 (ip), vehicle: saline
  survivor count: 3 of 6
T/C endpoint: mean survival time, dose: 177.0 mg/kg/injection, schedule: Q04DX003 (ip), vehicle: saline
  survivor count: 5 of 6
T/C endpoint: mean survival time, dose: 177.0 mg/kg/injection, schedule: Q08DX002 (ip), vehicle: saline
  survivor count: 2 of 6
T/C endpoint: mean survival time, dose: 200.0 mg/kg/injection, schedule: Q04DX003 (ip), vehicle: saline
  survivor count: 6 of 6
T/C endpoint: mean survival time, dose: 210.0 mg/kg/injection, schedule: Q01DX009 (ip), vehicle: saline
  survivor count: 6 of 6
T/C endpoint: mean survival time, dose: 256.0 mg/kg/injection, schedule: Q01DX001 (oral), vehicle: saline
  survivor count: 0 of 10
T/C endpoint: mean survival time, dose: 266.0 mg/kg/injection, schedule: Q01DX001 (ip), vehicle: saline
  survivor count: 4 of 6
T/C endpoint: mean survival time, dose: 266.0 mg/kg/injection, schedule: Q04DX003 (ip), vehicle: saline
  survivor count: 4 of 6
T/C endpoint: mean survival time, dose: 266.0 mg/kg/injection, schedule: Q08DX002 (ip), vehicle: saline
  survivor count: 4 of 6
T/C endpoint: mean survival time, dose: 300.0 mg/kg/injection, schedule: Q01DX001 (ip), vehicle: saline
  survivor count: 1 of 6
T/C endpoint: mean survival time, dose: 400.0 mg/kg/injection, schedule: Q01DX001 (ip), vehicle: saline
  survivor count: 5 of 6
T/C endpoint: mean survival time, dose: 400.0 mg/kg/injection, schedule: Q01DX009 (ip), vehicle: water
  survivor count: 0 of 10 and 10 of 10
T/C endpoint: mean survival time, dose: 400.0 mg/kg/injection, schedule: Q04DX003 (ip), vehicle: saline
  survivor count: 1 of 6 and 6 of 6
T/C endpoint: mean survival time, dose: 400.0 mg/kg/injection, schedule: Q08DX002 (ip), vehicle: saline
  survivor count: 5 of 6
T/C endpoint: median survival time, dose: 1.0 mg/kg/injection, schedule: Q01DX009 (ip), vehicle: water
  T/C: 138 % of control
T/C endpoint: median survival time, dose: 2.0 mg/kg/injection, schedule: Q01DX009 (sc), vehicle: water
  T/C: 144 % of control
T/C endpoint: median survival time, dose: 5.0 mg/kg/injection, schedule: Q01DX001 (ip), vehicle: water
  T/C: 142 % of control
T/C endpoint: median survival time, dose: 8.0 mg/kg/injection, schedule: Q01DX009 (ip), vehicle: water
  survivor count: 7 of 8
T/C endpoint: median survival time, dose: 8.0 mg/kg/injection, schedule: Q01DX009 (sc), vehicle: water
  survivor count: 8 of 8
T/C endpoint: median survival time, dose: 16.0 mg/kg/injection, schedule: Q01DX009 (ip), vehicle: water
  survivor count: 7 of 8
T/C endpoint: median survival time, dose: 16.0 mg/kg/injection, schedule: Q01DX009 (sc), vehicle: water
  survivor count: 3 of 8
T/C endpoint: median survival time, dose: 16.0 mg/kg/injection, schedule: Q04DX003 (ip), vehicle: water
  survivor count: 3 of 8
T/C endpoint: median survival time, dose: 16.0 mg/kg/injection, schedule: Q04DX003 (sc), vehicle: water
  survivor count: 4 of 8
T/C endpoint: median survival time, dose: 32.0 mg/kg/injection, schedule: Q04DX003 (ip), vehicle: water
  survivor count: 2 of 8
T/C endpoint: median survival time, dose: 32.0 mg/kg/injection, schedule: Q04DX003 (sc), vehicle: water
  survivor count: 3 of 8
